Measurements from patent US6593098.
No constants are given. Whether binding was seen depends on the method and setting. Some binding calls cover weakened binding; strength is not graded here.

Target: T1, 572 amino acid kinetochore-binding region of CENP-F (amino acids 2638-3210) bait (UniProt P49454)
T1 sequence (looked up): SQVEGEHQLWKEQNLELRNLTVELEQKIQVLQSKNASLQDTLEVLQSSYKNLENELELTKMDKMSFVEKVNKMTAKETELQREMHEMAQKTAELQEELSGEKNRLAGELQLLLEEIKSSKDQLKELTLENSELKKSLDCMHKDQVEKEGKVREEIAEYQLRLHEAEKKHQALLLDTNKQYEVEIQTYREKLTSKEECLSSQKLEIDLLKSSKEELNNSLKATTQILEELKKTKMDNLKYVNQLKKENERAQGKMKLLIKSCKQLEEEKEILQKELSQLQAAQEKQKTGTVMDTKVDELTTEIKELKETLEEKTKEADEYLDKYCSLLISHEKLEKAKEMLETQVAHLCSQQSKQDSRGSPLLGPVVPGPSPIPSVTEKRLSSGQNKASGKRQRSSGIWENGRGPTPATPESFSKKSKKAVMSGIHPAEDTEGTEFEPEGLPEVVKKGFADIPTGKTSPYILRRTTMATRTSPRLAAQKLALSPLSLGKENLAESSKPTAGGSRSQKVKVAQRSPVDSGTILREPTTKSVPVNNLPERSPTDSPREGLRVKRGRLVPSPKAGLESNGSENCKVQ
Assay: yeast two-hybrid screen

B1: huBUB1B two-hybrid clone Fint 309 (protein)
chain: KQALSSHMYSASLLRLSQPAAGGVLTCEAELGVEACRLTDTDAAIAEDPPGSAAIAEDPPDAIAGLQAEWMQMSSLGTVDAPNFIVGNPWDDKLIFKLLSGLSKPVSSYPNTFEWQCKLPAIKPKTEFQLGSKLVYVHHLLGEGAFAQVYEATQGDLNDAKNKQKFVLKVQKPANPWEFYIGTQLMERLKPSMQHMFMKFYSAHLFQNGSVLVGELYSYGTLLNAINLYKNTPEKVMPQGLVISFAMRMLYMIEQVHDCEIIHGDIKPDNFILGNGFLEQDDEDDLSAGLALIDLGQSIDMKLFPKGTIFTAKCETSGFQCVEMLSNKPWNYQIDYFGVAATVYCMLFGTYMKVKNEGGECKPEGLFRRLPHLDMWNEFFHVMLNIPDCHHLPSLDLLRQKLKKVFQQHYTNKIRALRNRLIVLLLECKRSRK
- binding: binds
